# Measurements reported in PubChem BioAssay AID1671190 (National Center for Advancing Translational Sciences (NCATS), 2021).
# Sequences of proteins named here, by UniProt entry; tags and fusion partners are left off. A change or cut given only in a name is not applied to a line headed by its entry.
# UniProt P18054: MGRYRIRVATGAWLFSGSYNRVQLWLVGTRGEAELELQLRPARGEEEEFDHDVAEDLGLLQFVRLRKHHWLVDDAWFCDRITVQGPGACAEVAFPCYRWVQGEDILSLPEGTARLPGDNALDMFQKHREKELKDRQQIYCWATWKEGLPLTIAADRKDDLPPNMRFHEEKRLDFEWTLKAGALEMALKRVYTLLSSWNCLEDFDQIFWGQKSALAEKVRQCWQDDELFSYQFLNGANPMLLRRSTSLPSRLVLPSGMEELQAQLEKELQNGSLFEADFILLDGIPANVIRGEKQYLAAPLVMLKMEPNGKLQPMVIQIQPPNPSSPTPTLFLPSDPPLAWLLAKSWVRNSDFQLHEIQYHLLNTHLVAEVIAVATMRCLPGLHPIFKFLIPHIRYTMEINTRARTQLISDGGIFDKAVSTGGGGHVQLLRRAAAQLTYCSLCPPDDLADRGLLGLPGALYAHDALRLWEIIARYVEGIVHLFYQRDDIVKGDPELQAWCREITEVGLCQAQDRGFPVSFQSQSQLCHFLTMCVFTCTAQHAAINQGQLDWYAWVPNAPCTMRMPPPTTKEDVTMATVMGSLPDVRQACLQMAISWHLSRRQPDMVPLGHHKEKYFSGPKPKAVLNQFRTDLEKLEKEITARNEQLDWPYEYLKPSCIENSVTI
# Out of some 580,000 compounds screened, about 6,100 (1.1%) were called active. Inconclusive means that the source gave no clear call. Such entries were picked first, then a sample of the others. Calls come from the whole dose curve; as a rule, active = well fitted inhibition curve with a large enough effect; inconclusive = small, poorly fitted or top-dose-only effect, or another doubt; inactive = no such curve, though single readings can be large or run the other way. Potencies of inconclusive entries are doubtful fits and often do not repeat.
# Target: Polyunsaturated fatty acid lipoxygenase ALOX12 (Homo sapiens) (UniProt P18054)
# Test: Primary qHTS assay for inhibitors of human arachidonate 12S-lipoxygenase (ALOX12): Round 2
# Settings: purified 12hLO, xylenol orange hydroperoxide absorbance; series mostly up to 108 µM
# Summary of the method: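 Hydroperoxide product was detected by ferrous iron/xylenol orange as the 573 to 405 nm absorbance ratio. Arachidonic acid at 40 uM (final) was turned over for 30 min at room temperature by 150 nM human 12hLO, pH 7.0 Hepes buffer, after 15 min compound preincubation.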
# Potency is the fitted concentration of half-maximal effect.
row,Structure (SMILES),Potency
1,Cc1ccc(NS(=O)(=O)c2ccc(C(=O)N3CCOCC3)cc2)cc1,inactive
2,Cc1cccc2cc(CN(CCCN(C)C)C(=S)NCCc3ccccc3)c(=O)[nH]c12,"inconclusive: 50.1 µM [inhibitor, partial curve, poor fit]"
3,CCCCN(CCCC)CC(O)COc1ccccc1C(=O)Nc1ccccc1 (stereo unspecified),inactive
4,N/C(=N/OC(=O)c1cccc([N+](=O)[O-])c1)c1cccc([N+](=O)[O-])c1,inactive
5,COc1ccc(CNC(=O)C2(c3ccc(NS(C)(=O)=O)cc3)CCCCC2)cc1,inactive
6,Cc1ccc(CNC(=O)c2ccc(Cl)c(-n3c(C)nc4cccnc43)c2)cc1,inactive
7,CCn1c(C)[n+](CC)c2ccc(S(=O)(=O)NC)cc21,inactive
8,COC(=O)c1cccc(NC(=S)N[C@H]2CO[C@H]3[C@@H]2OC[C@H]3OC(=O)Nc2cccc(C(F)(F)F)c2)c1,"inconclusive: 50.1 µM [inhibitor, partial curve]"
9,O=C(Nc1ccccc1-c1ccccc1)c1ccccc1Cl,inactive
10,O=C(NCCc1c[nH]c2ccccc12)NC12CC3CC(CC(C3)C1)C2,inactive
11,COc1cccc(C(=O)N2CCC(c3nc4ccccc4s3)CC2)c1,inactive
12,CCn1ccnc1C1CCN(c2nc3ccccc3o2)CC1,"inconclusive: 8.91 µM [inhibitor, partial curve]"
13,Cc1cccn2c(=O)c(/C=C(\C#N)C(=O)NC3CCS(=O)(=O)C3)c(Oc3ccc(F)cc3)nc12 (stereo unspecified),"inconclusive: 44.7 µM [inhibitor, full curve, poor fit]"
14,COc1ccc(C(=O)/C=C/c2ccccc2F)c(OC(=O)c2ccccc2Br)c1,"inconclusive: 56.2 µM [inhibitor, partial curve, poor fit]"
15,COc1cc(/C=C/C(=O)O)cc(S(=O)(=O)Nc2ccc3nc(SC)sc3c2)c1OC,inactive
16,CCc1nc2c(c(-c3ccc(Cl)cc3)n1)CN(C(=O)c1cccc(Cl)c1)CC2,"inconclusive: 79.4 µM [inhibitor, single point]"
17,O=C(Nc1ccc2nn(-c3ccc(F)cc3)nc2c1)c1cccc2c(Cl)cccc12,"inconclusive: 100 µM [inhibitor, partial curve, poor fit]"
18,CC(C)CCn1nc(C(=O)Nc2nc3c(s2)CCCC3)c2ccccc2c1=O,"inconclusive: 70.8 µM [inhibitor, partial curve, poor fit]"
19,Cc1cccnc1NC(=O)c1csnn1,"inconclusive: 28.2 µM [inhibitor, partial curve, poor fit]"
20,CC(C)N1C(=O)C2(CCCC2)C1C(=O)N1CCN(Cc2ccccc2)CC1 (stereo unspecified),inactive
21,CC1CCCC(NS(=O)(=O)c2ccc3c(c2)OCCO3)C1C (stereo unspecified),"inconclusive: 112 µM [inhibitor, partial curve, poor fit]"
22,CC(C)(C)c1ccc(Cn2nnc3c(=O)[nH]c(C4CCCN(C(=O)c5ccco5)C4)nc32)cc1 (stereo unspecified),"inconclusive: 39.8 µM [inhibitor, partial curve, poor fit]"
23,Cc1ccc(Nc2ncnc3sc(C)c(C)c23)cc1,inactive
24,COc1ccc(CC(=O)N/N=C/c2cc([N+](=O)[O-])cc(Br)c2O)cc1,"inconclusive: 10 µM [inhibitor, partial curve]"

# Random excerpt: 4 records from the list.
row,Structure (SMILES),Potency
24,COc1ccc(CC(=O)N/N=C/c2cc([N+](=O)[O-])cc(Br)c2O)cc1,"inconclusive: 10 µM [inhibitor, partial curve]"
1,Cc1ccc(NS(=O)(=O)c2ccc(C(=O)N3CCOCC3)cc2)cc1,inactive
23,Cc1ccc(Nc2ncnc3sc(C)c(C)c23)cc1,inactive
10,O=C(NCCc1c[nH]c2ccccc12)NC12CC3CC(CC(C3)C1)C2,inactive

# Next structures

row,Structure (SMILES),Potency
1,Cc1ccc(Cl)cc1NC(=O)CN1CCOCC1,"inconclusive: 44.7 µM [inhibitor, partial curve, poor fit]"
2,Cc1ccc(Cl)cc1N1CCN(C(=O)c2c(C)oc3ncnc(N4CCOCC4)c23)CC1,inactive
3,Cc1cc(C)cc(OCC(=O)Nc2ccc(-c3nc4ncccc4o3)cc2C)c1,inactive
4,COC(=O)c1cccc(Nc2c(-c3cc(Br)ccc3O)nc3nc[nH]n23)c1,"inconclusive: 7.94 µM [inhibitor, full curve, poor fit]"
5,COc1ccc(C2=NN(C(=O)CSc3nnc(-c4ccccc4F)o3)C(c3ccco3)C2)cc1 (stereo unspecified),inactive
6,O=c1cccc2n1Cc1cc3ccccc3nc1-2,"inconclusive: 50.1 µM [inhibitor, partial curve, poor fit]"
7,O=C(O)c1cc(NCc2ccc(OCc3ccccc3)cc2)ccc1N1CCOCC1,inactive
8,Cc1ccc(Cc2c(-c3ccc(Cl)cc3)nc3c(Cl)cc(C(F)(F)F)cn23)cc1,active: 35.5 µM
9,COc1ccc(C(=O)NC(=S)N(Cc2ccccc2)Cc2ccccc2)cc1,active: 35.5 µM
10,Cc1c(CCC(=O)NCCCN2CCOCC2)c(=O)oc2c(C)c(O)ccc12,inactive
11,CCCn1nc(C(=O)NCC2CCCN2CC)c2ccccc2c1=O (stereo unspecified),"inconclusive: 112 µM [inhibitor, single point]"
12,COc1ccc(NC(=S)NCc2ccccc2)c(OC)c1,"inconclusive: 44.7 µM [inhibitor, partial curve, poor fit]"
13,CCC(C)NC(=O)CN1C(=O)C(c2ccccc2)=NC1(C)C (stereo unspecified),inactive
14,COc1cccc(COC(=O)C2CC(=O)N(Cc3ccco3)C2)c1OC (stereo unspecified),"inconclusive: 44.7 µM [inhibitor, single point]"
15,Cc1ccc(Cl)cc1NC(=O)CN1C(=O)NC2(CCC(C)CC2)C1=O (stereo unspecified),"inconclusive: 15.8 µM [inhibitor, full curve, poor fit]"
16,CN1C(=O)C2(CCN(CC3CCCCC3)C2)c2ccccc21 (stereo unspecified),"inconclusive: 22.4 µM [inhibitor, full curve]"
17,COc1cccc(-c2cc(C(=O)NCc3ccc(Cl)cc3)no2)c1,"inconclusive: 0.562 µM [inhibitor, full curve, poor fit]"
18,O=C(c1cc2cc(Br)ccc2o1)c1ccc(F)cc1F,inactive
19,CC(C)(C)c1ccc(-n2ncc3c2CCCC3NC(=O)C2=NNC(=O)CC2)cc1 (stereo unspecified),inactive
20,Cc1csc(=Nc2ccccc2)n1Cc1ccco1,"inconclusive: 50.1 µM [inhibitor, partial curve, poor fit]"
21,CS(=O)(=O)c1ccc(Cl)c(NC(=O)C2CC(=O)N(Cc3ccco3)C2)c1 (stereo unspecified),inactive
22,Cc1ccc(C(=O)NCc2nnnn2-c2ccc(C)c(C)c2)cc1,"inconclusive: 141 µM [inhibitor, partial curve, poor fit]"
23,COC(=O)CN1C(=S)N(c2ccccc2)C(=O)C1CC(=O)Nc1ccc(Cl)cc1 (stereo unspecified),"inconclusive: 79.4 µM [inhibitor, single point]"
24,Cc1ccc(C(=O)COC(=O)c2cccc(C)c2C)cc1,"inconclusive: 0.891 µM [inhibitor, full curve, poor fit]"

row,Structure (SMILES),Potency
1,O=C(c1ccco1)N(CCC(c1ccccc1)c1ccco1)Cc1ccco1 (stereo unspecified),active: 17.8 µM
2,c1ccc(Cc2ccc(OCCn3ccnc3)cc2)cc1,"inconclusive: 141 µM [inhibitor, single point]"
3,Cc1ccccc1C(=O)NC(=S)N(CCO)Cc1ccccc1,inactive
4,O=C(Nc1sc2c(c1C(=O)O)CCC2)c1ccccc1,"inconclusive: 20 µM [inhibitor, partial curve, poor fit]"
5,O=C1NC(=NC2CCCCC2)C2(CCN(CC3CCCCC3)C2)N1c1cc(F)cc(F)c1 (stereo unspecified),"inconclusive: 100 µM [inhibitor, partial curve, poor fit]"
6,COc1cc2c3c(c1)/C(=C1/SC(NC(C)=O)=NC1=O)C(=O)N3C(C)(C)C=C2C,"inconclusive: 35.5 µM [inhibitor, single point]"
7,COc1cccc(NC(=O)c2ccccc2)c1,inactive
8,O=S(=O)(c1cccc(C(F)(F)F)c1)N1CCN(CC(O)COCc2ccccc2)CC1 (stereo unspecified),"inconclusive: 0.794 µM [inhibitor, full curve]"
9,COc1ccccc1N1CCN(C(=O)C2CCN(S(=O)(=O)c3ccc(C)cc3)CC2)CC1,"inconclusive: 100 µM [inhibitor, partial curve, poor fit]"
10,CC(C)c1cc(C2CCCN2C(=O)CCc2cc3n(n2)CCCNC3)no1 (stereo unspecified),"inconclusive: 12.6 µM [inhibitor, full curve]"
11,COc1ccc(-n2nc(C3CCCN(C(=O)Cc4ccc(F)cc4)C3)[nH]c2=O)cc1 (stereo unspecified),inactive
12,CN(Cc1ccc(C2CC(=O)Nc3n[nH]c(C4CCC4)c32)o1)S(C)(=O)=O (stereo unspecified),"inconclusive: 5.01 µM [inhibitor, partial curve, poor fit]"
13,COCc1nc(C2CC(N)C2)cc(N2CCC(NS(C)(=O)=O)CC2)n1 (stereo unspecified),"inconclusive: 17.8 µM [inhibitor, partial curve]"
14,CCN(CC)CCN(Cc1cc2cc(C)c(C)cc2[nH]c1=O)C(=S)NCc1ccco1,"inconclusive: 44.7 µM [inhibitor, partial curve, poor fit]"
15,CCCc1noc(C(C)Nc2ccc(N3CCCC3=O)c(Cl)c2)n1 (stereo unspecified),inactive
16,COCCN(C(=O)COC(=O)Cc1ccc(Cl)cc1)c1c(N)n(Cc2ccccc2)c(=O)[nH]c1=O,inactive
17,O=C1COc2ccc(S(=O)(=O)NCCc3ccccc3)cc2N1,inactive
18,Cc1ccc(-n2cccn2)c(CN2CCCC(CNC(=O)c3ccc(F)cc3)C2)c1 (stereo unspecified),inactive
19,CCn1c(=O)c2sccc2n(CC(=O)NCc2ccc(F)cc2Cl)c1=O,inactive
20,COc1ccccc1CN1CCN(C(CC(C)C)c2nnnn2Cc2cccs2)CC1 (stereo unspecified),"inconclusive: 3.16 µM [inhibitor, full curve, poor fit]"
21,Cc1ccc(N2C(=O)c3n[nH]c(C)c3C2c2ccc(C(C)C)cc2)cc1 (stereo unspecified),"inconclusive: 7.08 µM [inhibitor, partial curve]"
22,O=C(Cn1cncn1)N/N=C/c1c2ccccc2cc2ccccc12,"inconclusive: 14.1 µM [inhibitor, partial curve, poor fit]"
23,CC(NC(=O)Nc1ccccc1O)(C(F)(F)F)C(F)(F)F,inactive
